Data published in PMC4626870.
These are yes or no findings as the source states them, for the method shown. In cells and extracts the contact can be indirect. Some binding calls cover weakened binding; strength is not graded here.

The chains behind the UniProt entries cited, without tags or fusion partners.
UniProt P19785: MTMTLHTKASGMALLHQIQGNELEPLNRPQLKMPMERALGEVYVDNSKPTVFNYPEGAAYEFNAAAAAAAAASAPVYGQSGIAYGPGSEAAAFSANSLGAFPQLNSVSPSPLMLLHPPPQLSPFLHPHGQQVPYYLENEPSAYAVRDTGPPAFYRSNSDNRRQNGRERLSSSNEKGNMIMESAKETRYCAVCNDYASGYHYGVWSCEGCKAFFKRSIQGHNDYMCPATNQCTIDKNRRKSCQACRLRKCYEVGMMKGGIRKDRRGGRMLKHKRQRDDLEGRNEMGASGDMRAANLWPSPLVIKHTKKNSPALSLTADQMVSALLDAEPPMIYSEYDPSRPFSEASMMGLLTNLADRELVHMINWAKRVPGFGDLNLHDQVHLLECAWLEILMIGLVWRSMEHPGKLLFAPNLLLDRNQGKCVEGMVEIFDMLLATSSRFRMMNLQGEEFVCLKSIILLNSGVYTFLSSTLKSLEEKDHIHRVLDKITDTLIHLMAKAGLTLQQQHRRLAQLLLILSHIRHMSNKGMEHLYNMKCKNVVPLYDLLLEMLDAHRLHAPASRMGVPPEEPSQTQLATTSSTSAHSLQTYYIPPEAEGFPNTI
UniProt O08537: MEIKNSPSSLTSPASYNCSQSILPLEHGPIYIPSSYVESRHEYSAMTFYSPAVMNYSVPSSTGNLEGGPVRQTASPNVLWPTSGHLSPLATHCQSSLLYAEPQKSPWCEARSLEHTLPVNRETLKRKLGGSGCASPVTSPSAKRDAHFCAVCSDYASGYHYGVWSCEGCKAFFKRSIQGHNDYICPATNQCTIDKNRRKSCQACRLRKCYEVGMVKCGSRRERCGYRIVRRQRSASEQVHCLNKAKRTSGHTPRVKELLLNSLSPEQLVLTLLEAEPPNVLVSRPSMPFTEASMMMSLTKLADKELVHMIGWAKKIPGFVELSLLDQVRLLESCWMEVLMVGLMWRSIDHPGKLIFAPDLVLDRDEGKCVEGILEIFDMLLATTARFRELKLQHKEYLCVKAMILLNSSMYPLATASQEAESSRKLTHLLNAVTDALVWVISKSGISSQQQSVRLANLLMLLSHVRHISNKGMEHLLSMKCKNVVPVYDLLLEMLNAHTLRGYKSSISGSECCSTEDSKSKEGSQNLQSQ
UniProt Q62986: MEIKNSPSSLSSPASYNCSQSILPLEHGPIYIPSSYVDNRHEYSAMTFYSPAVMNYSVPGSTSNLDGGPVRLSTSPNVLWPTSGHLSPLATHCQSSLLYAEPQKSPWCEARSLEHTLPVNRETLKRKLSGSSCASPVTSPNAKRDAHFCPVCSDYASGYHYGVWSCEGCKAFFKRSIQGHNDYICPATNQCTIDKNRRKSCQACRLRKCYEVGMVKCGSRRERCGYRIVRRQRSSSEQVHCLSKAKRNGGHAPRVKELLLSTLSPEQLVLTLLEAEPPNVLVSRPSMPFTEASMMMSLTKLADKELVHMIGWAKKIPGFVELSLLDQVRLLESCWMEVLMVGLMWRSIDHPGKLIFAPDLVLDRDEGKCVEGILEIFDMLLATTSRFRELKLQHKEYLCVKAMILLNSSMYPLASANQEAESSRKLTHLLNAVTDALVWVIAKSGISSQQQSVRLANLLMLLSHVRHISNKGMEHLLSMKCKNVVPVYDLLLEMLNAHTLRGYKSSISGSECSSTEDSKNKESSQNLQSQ
UniProt P06211: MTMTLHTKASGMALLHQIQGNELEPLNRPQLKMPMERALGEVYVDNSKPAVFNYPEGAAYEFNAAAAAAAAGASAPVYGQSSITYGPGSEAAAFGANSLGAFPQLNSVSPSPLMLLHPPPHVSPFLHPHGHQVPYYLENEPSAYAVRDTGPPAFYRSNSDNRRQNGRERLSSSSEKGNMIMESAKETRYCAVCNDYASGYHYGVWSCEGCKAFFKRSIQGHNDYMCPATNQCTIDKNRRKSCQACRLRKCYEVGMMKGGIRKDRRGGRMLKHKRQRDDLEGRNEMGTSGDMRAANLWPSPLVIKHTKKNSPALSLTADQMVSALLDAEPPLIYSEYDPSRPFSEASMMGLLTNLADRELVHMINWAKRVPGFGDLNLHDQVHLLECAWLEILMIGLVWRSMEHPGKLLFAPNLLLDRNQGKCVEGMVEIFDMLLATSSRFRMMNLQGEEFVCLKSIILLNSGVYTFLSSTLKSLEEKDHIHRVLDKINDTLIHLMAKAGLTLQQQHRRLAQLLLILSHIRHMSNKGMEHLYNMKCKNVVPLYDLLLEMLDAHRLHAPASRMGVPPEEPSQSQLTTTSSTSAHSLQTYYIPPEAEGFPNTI

Assays:
[1] = molecular target: oestrogen receptor α (ERα), endogenous in C2C12 cells (mouse (endogenous in C2C12)) (UniProt P19785); test: co-IP; C2C12 lysates after 1-h treatment with E2 (10 μM); ER antibody coated columns; eluates blotted
[2] = molecular target: oestrogen receptor β (ERβ), endogenous in C2C12 cells (mouse (endogenous in C2C12)) (UniProt O08537); test: as above
[3] = molecular target: oestrogen receptor β (ERβ), endogenous in neonatal rat cardiomyocytes (rat (endogenous in NRCM)) (UniProt Q62986); test: co-IP; NRCM lysates after 1-h treatment with E2 (10 μM); ER antibody coated columns; eluates blotted
[4] = molecular target: oestrogen receptor α (ERα), endogenous in neonatal rat cardiomyocytes (rat (endogenous in NRCM)) (UniProt P06211); test: as above

| binding [1] | binding [2] | binding [3] | binding [4] | Binder |
| --- | --- | --- | --- | --- |
| binds | binds |  |  | LKB1, endogenous in C2C12 cells (enzyme, UniProt Q9WTK7 1-436) MDVADPEPLGLFSEGELMSVGMDTFIHRIDSTEVIYQPRRKRAKLIGKYLMGDLLGEGSYGKVKEVLDSETLCRRAVKILKKKKLRRIPNGEANVKKEIQLLRRLRHRNVIQLVDVLYNEEKQKMYMVMEYCVCGMQEMLDSVPEKRFPVCQAHGYFRQLIDGLEYLHSQGIVHKDIKPGNLLLTTNGTLKISDLGVAEALHPFAVDDTCRTSQGSPAFQPPEIANGLDTFSGFKVDIWSAGVTLYNITTGLYPFEGDNIYKLFENIGRGDFTIPCDCGPPLSDLLRGMLEYEPAKRFSIRQIRQHSWFRKKHPLAEALVPIPPSPDTKDRWRSMTVVPYLEDLHGRAEEEEEEDLFDIEDGIIYTQDFTVPGQVLEEEVGQNGQSHSLPKAVCVNGTEPQLSSKVKPEGRPGTANPARKVCSSNKIRRLSACKQQ |
|  |  | binds | binds | LKB1, endogenous in neonatal rat cardiomyocytes (enzyme, UniProt D4AE59 1-436) MDVADPQPLGLFPEGELMSVGMDTFIHRIDSTEVIYQPRRKRAKLIGKYLMGDLLGEGSYGKVKEVLDSETLCRRAVKILKKKKLRRIPNGEANVKKEIQLLRRLRHRNVIQLVDVLYNEEKQKMYMVMEYCVCGMQEMLDSVPEKRFPVCQAHGYFRQLIDGLEYLHSQGIVHKDIKPGNLLLTTNGTLKISDLGVAEALHPFAVDDTCRTSQGSPAFQPPEIANGLDTFSGFKVDIWSAGVTLYNITTGLYPFEGDNIYKLFENIGRGDFTIPCDCAPPLSDLLRGMLEYEPAKRFSIRQIRQHSWFRKKHPLAEALVPIPPSPDTKDRWRSMTVVPYLEDLHGRAEEEEDEDLFDIEDGIIYTQDFTVPGQVLEEEVGQNGQSHSLPKAVCVNGTEPQLSSKVKPEGRPGAANPARKVCSSNKIRRLSACKQQ |
